Test results: publication PMC7673040
No constants are given. Whether binding was seen depends on the method and setting. Some binding calls cover weakened binding; strength is not graded here.

Target: T1, SRP72 (human) (UniProt O76094)
T1 sequence: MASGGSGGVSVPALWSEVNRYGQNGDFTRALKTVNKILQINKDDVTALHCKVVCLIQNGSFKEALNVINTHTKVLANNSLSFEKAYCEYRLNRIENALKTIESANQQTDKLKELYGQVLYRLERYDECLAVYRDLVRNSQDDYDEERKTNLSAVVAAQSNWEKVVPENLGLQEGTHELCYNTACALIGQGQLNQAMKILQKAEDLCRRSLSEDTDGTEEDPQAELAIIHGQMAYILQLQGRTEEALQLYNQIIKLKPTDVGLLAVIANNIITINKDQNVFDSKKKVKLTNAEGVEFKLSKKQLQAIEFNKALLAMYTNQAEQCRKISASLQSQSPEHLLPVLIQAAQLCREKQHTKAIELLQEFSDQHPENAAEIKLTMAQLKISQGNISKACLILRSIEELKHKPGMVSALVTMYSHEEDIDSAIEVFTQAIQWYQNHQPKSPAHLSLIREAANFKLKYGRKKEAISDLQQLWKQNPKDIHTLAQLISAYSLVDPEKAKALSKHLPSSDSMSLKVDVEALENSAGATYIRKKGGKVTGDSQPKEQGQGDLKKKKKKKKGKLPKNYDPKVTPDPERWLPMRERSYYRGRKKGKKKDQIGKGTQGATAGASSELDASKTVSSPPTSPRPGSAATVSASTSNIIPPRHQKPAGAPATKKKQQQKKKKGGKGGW
Assay: co-purification; SRP68 and SRP72 co-expressed in yeast; Ni-Sepharose and MonoS

B1: SRP68 (protein, UniProt Q9UHB9 1-627)
chain: MAAEKQVPGGGGGGGSGGGGGSGGGGSGGGRGAGGEENKENERPSAGSKANKEFGDSLSLEILQIIKESQQQHGLRHGDFQRYRGYCSRRQRRLRKTLNFKMGNRHKFTGKKVTEELLTDNRYLLLVLMDAERAWSYAMQLKQEANTEPRKRFHLLSRLRKAVKHAEELERLCESNRVDAKTKLEAQAYTAYLSGMLRFEHQEWKAAIEAFNKCKTIYEKLASAFTEEQAVLYNQRVEEISPNIRYCAYNIGDQSAINELMQMRLRSGGTEGLLAEKLEALITQTRAKQAATMSEVEWRGRTVPVKIDKVRIFLLGLADNEAAIVQAESEETKERLFESMLSECRDAIQVVREELKPDQKQRDYILEGEPGKVSNLQYLHSYLTYIKLSTAIKRNENMAKGLQRALLQQQPEDDSKRSPRPQDLIRLYDIILQNLVELLQLPGLEEDKAFQKEIGLKTLVFKAYRCFFIAQSYVLVKKWSEALVLYDRVLKYANEVNSDAGAFKNSLKDLPDVQELITQVRSEKCSLQAAAILDANDAHQTETSSSQVKDNKPLVERFETFCLDPSLVTKQANLVHFPPGFQPIPCKPLFFDLALNHVAFPPLEDKLEQKTKSGLTGYIKGIFGFRS
With B1 the binding was “binds”.
